# About 220 (0.063%) of roughly 350,000 compounds were called active. The inconclusive results got no clear call from the source; some entries with a clear call stand among them for comparison. Calls come from the whole dose curve; as a rule, active = well fitted activation curve with a large enough effect; inconclusive = small, poorly fitted or top-dose-only effect; inactive = no such curve, though single readings can be large or run the other way. Potencies of inconclusive entries are doubtful fits and often do not repeat.
# Assay: qHTS for Activators of Integrin-Mediated Alleviation for Muscular Dystrophy; note: nearly all actives have a fitted effect of over 60% in size;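 for activation: 100% = response of the positive control SU9516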
# Settings: alpha7betagal myoblasts, beta-gal FDG fluorescence, 48 h; activation: at 38.3 µM (top of the series)
# How it was run: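 alpha7betagal+/- myoblasts (passage 13, 250/well) treated 48 h at 37C with compounds at 1:260 dilution of DMSO stock. Lysed, then beta-galactosidase activity read as FDG fluorescence (ex 480/em 540) after 30 min, with pre-read for autofluorescence.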
# Potency is the fitted concentration of half-maximal effect.
SMILES,Potency,activation
CCN(CC)CCN(C(=O)Cn1nnc(-c2ccc(OC)c(OC)c2)n1)C(C(=O)NC1CCCC1)c1ccc(F)cc1 (centres undefined),"inconclusive: 5.01 µM [activator, single point]",–
CC(=O)NS(=O)(=O)c1ccc(NS(=O)(=O)c2ccccc2[N+](=O)[O-])cc1,inactive,–
CC1CCCCN1C(=O)c1cc2ccccc2cc1O (centres undefined),"inconclusive: 8.91 µM [activator, single point]",–
CCCCn1c(=O)c2ccccc2n2c(=S)[nH]nc12,"inconclusive: 4.47 µM [activator, single point]",–
O=[N+]([O-])c1ccc(Nc2ccc(F)cc2)cc1,"inconclusive: 1.58 µM [activator, partial curve, poor fit]",–
CCOC(=O)c1sc(=NC(=O)c2cccc(OC)c2)n(C)c1C,"inconclusive: 7.08 µM [activator, partial curve, poor fit]",–
C=CCNC(=S)N/N=C(\C)c1cccc(NC(C)=O)c1,"inconclusive: 8.91 µM [activator, partial curve, poor fit]",–
COc1ccc(C(=O)NC(C(=O)NCc2ccccc2OC)C(C)C)cc1 (centres undefined),inactive,–
COC(=O)c1cc(S(=O)(=O)N(Cc2ccccc2)C(C)(C)C)c[nH]1,–,inconclusive: 24% [activator]
O=C(Nc1ccc2ccccc2c1)c1ccc2[nH]c(=O)c(=O)[nH]c2c1,"inconclusive: 8.91 µM [activator, single point]",–
CC(C)CC1NC(=O)N(CC(=O)NC2CCCc3ccccc32)C1=O (centres undefined),"inconclusive: 3.55 µM [activator, single point]",–
CCc1c(C2(O)CCCCC2)[nH]c2cc(C(F)(F)F)ccc12,inactive,–
COc1ccc(OCC(O)Cn2c(N)nc3c2c(=O)[nH]c(=O)n3C)cc1 (centres undefined),inactive,–
COc1ccc(C(C)(C)C)cc1NC(=O)CCc1c(C)noc1C,"inconclusive: 3.16 µM [activator, single point]",–
CCCCN(CC(=O)NCc1ccc(F)cc1)C(=O)c1ccco1,"inconclusive: 28.2 µM [activator, single point]",–
O=[N+]([O-])c1cccc(-c2ccn[nH]2)c1,"inconclusive: 1.12 µM [activator, partial curve, poor fit]",–
Cc1ccc(C(=O)O/N=C(\N)c2ccccn2)c(Cl)c1,"inconclusive: 5.01 µM [activator, single point]",–
Cc1nc(CN(C)C(=O)c2ccccc2OC2CCN(S(C)(=O)=O)CC2)cs1,inactive,–
CC(=O)c1ccc(Nc2cc(C)nc3ncnn23)cc1,inactive,–
Cc1ccc(C(=O)N/C(N)=N/c2nc3ccccc3o2)cc1,inactive,–
COc1ccc(C(=O)NCCNc2ccc([N+](=O)[O-])cc2)cc1,"inconclusive: 31.6 µM [activator, single point]",–
NC(=O)CSc1nnc(NC(=O)c2ccc(S(=O)(=O)N3CCOCC3)cc2)s1,"inconclusive: 28.2 µM [activator, single point]",–
Cc1cc(C)n(C(=O)CNC(=O)C(c2ccccc2)c2ccccc2)n1,"inconclusive: 5.01 µM [activator, single point]",–
CC(=O)c1nnn(-c2ccc(F)cc2F)c1C,"inconclusive: 5.01 µM [activator, single point]",–
Cc1ccccc1CN1C(=O)C(C)S/C1=N/N=C/c1ccco1 (centres undefined),"inconclusive: 1.58 µM [activator, single point]",–

# Reprinted from the listing for reference:
SMILES,Potency,activation
CC(=O)NS(=O)(=O)c1ccc(NS(=O)(=O)c2ccccc2[N+](=O)[O-])cc1,inactive,–
CC1CCCCN1C(=O)c1cc2ccccc2cc1O (centres undefined),"inconclusive: 8.91 µM [activator, single point]",–
CCCCn1c(=O)c2ccccc2n2c(=S)[nH]nc12,"inconclusive: 4.47 µM [activator, single point]",–

# (further entries)

SMILES,Potency,activation
C=CCOc1ccccc1C(=O)/C=C1/C(=O)Nc2ccccc21,inactive,–
O=C(c1cccs1)N1CCN=C1SCc1cccc(F)c1,"inconclusive: 3.16 µM [activator, single point]",–
CCOC(=O)c1cccc(Nc2nc(-c3cccnc3)nc3ccccc23)c1,inactive,–
CCCn1nnnc1NCc1ccc(SC)cc1,"inconclusive: 3.16 µM [activator, single point]",–
Cc1nnc(NC(=O)c2ccc3ccccc3c2)s1,"inconclusive: 3.16 µM [activator, full curve]",–
Cc1cc(C)nc(NC(=O)c2ccc(Cl)cc2Cl)n1,active: 10 µM,–
Cc1ccc(-n2nc3c([n+]2[O-])CCc2c-3no[n+]2[O-])cc1,inactive,–
O=S(=O)(c1cccc(NC(=S)Nc2ccc(Br)cc2Cl)c1)N1CCOCC1,"inconclusive: 5.01 µM [activator, single point]",–
O=C(NC(=S)N1CCc2ccccc21)c1ccccc1,inactive,–
COc1ccc(/C=N/Nc2ccccn2)cc1OC,inactive,–
Cc1ccccc1C1C(C#N)=C2N=C(N)c3c(sc4c3CCCCC4)N2C2=C1C(=O)CCC2 (centres undefined),inactive,–
O=c1[nH]c([N+](=O)[O-])nn1C(c1ccccc1)c1ccccc1,"inconclusive: 28.2 µM [activator, single point]",–
COc1ccc(NCc2nnc(SCc3ccc(Cl)cc3)n2-c2ccccc2)cc1,"inconclusive: 7.08 µM [activator, partial curve, poor fit]",–
Cc1nc(N)sc1-c1csc(Nc2ccccc2)n1,inactive,–
CC(=O)N1c2ccc(S(=O)(=O)N3CCC(C(=O)Nc4ccc(F)cc4)CC3)cc2CC1C (centres undefined),inactive,–
COc1ccccc1COC(=O)c1ccc(S(=O)(=O)N2CCOCC2)cc1,inactive,–
O=C(CCNC(=O)Cn1ccc2ccccc2c1=O)NCCCN1CCN(c2ccc(F)cc2)CC1,inactive,–
CCN(CC)S(=O)(=O)c1ccc(O)c(NC(=O)c2cc(-c3cc(OC)c(OC)c(OC)c3)nc3ccccc23)c1,inactive,–
Cc1cc(NS(=O)(=O)c2ccc(NC(=O)C(C(C)C)N3C(=O)c4ccccc4C3=O)cc2)nc(C)n1 (centres undefined),inactive,–
Cn1c(CCN2CCCC2)nc2cc(NS(=O)(=O)c3ccc(Cl)cc3)ccc21,"inconclusive: 2.24 µM [activator, partial curve, poor fit]",–
COc1ccc(S(=O)(=O)N2CCN(Cc3ccccc3[N+](=O)[O-])CC2)cc1,"inconclusive: 3.16 µM [activator, single point]",–
Cc1cc(C)cc(C(=O)Nc2c3c(nn2C(C)(C)C)CS(=O)(=O)C3)c1,"inconclusive: 11.2 µM [activator, partial curve, poor fit]",–
O=c1cc(CO)oc(C(Nc2ccccn2)c2ccccc2Cl)c1O (centres undefined),"inconclusive: 5.01 µM [activator, single point]",–
Cc1ccc(-n2nnnc2-c2cnc(N3CCCC3)nc2C(F)(F)F)cc1,inactive,–
CCSc1nnc(NC(=O)Nc2cccc(C)c2)s1,"inconclusive: 5.01 µM [activator, single point]",–

# By substructure: the compounds so far containing a thiophene ring, fused or not.
SMILES,Potency,activation
O=C(c1cccs1)N1CCN=C1SCc1cccc(F)c1,"inconclusive: 3.16 µM [activator, single point]",–
Cc1ccccc1C1C(C#N)=C2N=C(N)c3c(sc4c3CCCCC4)N2C2=C1C(=O)CCC2 (centres undefined),inactive,–

# More compounds:

SMILES,Potency,activation
CCN(Cc1ccc(C#CCCO)cc1)CC1CCCN(CCc2cccc(F)c2)C1 (centres undefined),"inconclusive: 25.1 µM [activator, single point]",–
O=C(NN1C(=O)C2C3C=CC(O3)C2C1=O)c1ccncc1 (centres undefined),"inconclusive: 0.501 µM [activator, full curve, poor fit]",–
O=C1CN(c2nc(-c3ccccc3)c3cc(Cl)ccc3n2)c2ccccc2N1,inactive,–
COc1ccc(N(C(C)C(=O)Nc2ccc(S(=O)(=O)N3CCCCC3)cc2)S(C)(=O)=O)cc1 (centres undefined),"inconclusive: 10 µM [activator, partial curve, poor fit]",–
O=C(NC(Cc1c[nH]c2ccccc12)C(=O)O)c1ccco1 (centres undefined),inactive,–
NC(=O)Nc1ccc(C(=O)OCC(=O)N(Cc2ccccc2)C2CCS(=O)(=O)C2)cc1 (centres undefined),inactive,–
Clc1ccc(SCc2cc(N3CCOCC3)nc(-c3ccccn3)n2)cc1,inactive,–
COc1cc(C(C)=O)ccc1Oc1ncccn1,"inconclusive: 28.2 µM [activator, single point]",–
Cc1ccc(C)c(NC(=O)N2CCc3ccccc3C2)c1,inactive,–
N#C/C(=C\c1ccc(Cl)c([N+](=O)[O-])c1)c1ccccn1,inactive,–
COc1ccc(-n2c(SCC(=O)/C(C#N)=C(\C)N)nc3ccccc3c2=O)cc1OC,"inconclusive: 5.01 µM [activator, single point]",–
COc1cccc2cc(CC(=O)c3cc(C)ccc3C)c(=O)oc12,inactive,–
CCOc1c2ccc(C(=O)NCc3ccc(OC(F)(F)F)cc3)cc2nn1CC,inactive,–
Cc1cc(Cl)ccc1OC(C)C(=O)NN=C1CCCCCC1 (centres undefined),"inconclusive: 3.98 µM [activator, single point]",–
CNS(=O)(=O)c1cccc(C(=O)OCC(=O)Nc2cc(F)ccc2F)c1,"inconclusive: 7.08 µM [activator, partial curve, poor fit]",–
CCN1C(=O)c2ccc(C(=O)NCc3ccco3)cc2C1=O,inactive,–
O=C1NC(c2ccc(-c3ccccc3[N+](=O)[O-])o2)C(C(=O)c2ccccc2)C(O)(C(F)(F)F)N1 (centres undefined),"inconclusive: 12.6 µM [activator, partial curve, poor fit]",–
COc1ccc(C(=O)CC(=O)C(=O)Nc2ccc(C)c(Cl)c2)cc1,"inconclusive: 5.01 µM [activator, single point]",–
Cc1ccc(C)c(OCCCC(=O)NC2CCCCC2)c1,inactive,–
O=C1/C(=C/c2ccco2)N=C(N2CCCCC2)N1c1ccccc1,inactive,–
NS(=O)(=O)c1cccc(NC(=O)COC(=O)Cc2n[nH]c(=O)c3ccccc23)c1,"inconclusive: 2.82 µM [activator, partial curve, poor fit]",–
FC(F)(F)c1cnc(N2CCN(C(=S)NCc3ccccc3)CC2)c(Cl)c1,"inconclusive: 3.16 µM [activator, single point]",–
CCCC1CCc2c(sc(NC(=O)c3cccs3)c2C(N)=O)C1 (centres undefined),inactive,–
Cn1nc(C(F)(F)F)c(-c2ccc(Br)cc2)c1NC(=O)CSCC(=O)O,"inconclusive: 2.82 µM [activator, partial curve, poor fit]",–
